In US7090999:
These are yes or no findings as the source states them, for the method shown. Binding seen in cells or lysates may run through a third protein. Some binding calls cover weakened binding; strength is not graded here. Sequences can lack the tags named with a protein.

Biological target: T1, SnaB, small subunit of pristinamycin IIA synthase of Streptomyces pristinaespiralis SP92 (Streptomyces pristinaespiralis SP92) (UniProt P54993)
T1 sequence: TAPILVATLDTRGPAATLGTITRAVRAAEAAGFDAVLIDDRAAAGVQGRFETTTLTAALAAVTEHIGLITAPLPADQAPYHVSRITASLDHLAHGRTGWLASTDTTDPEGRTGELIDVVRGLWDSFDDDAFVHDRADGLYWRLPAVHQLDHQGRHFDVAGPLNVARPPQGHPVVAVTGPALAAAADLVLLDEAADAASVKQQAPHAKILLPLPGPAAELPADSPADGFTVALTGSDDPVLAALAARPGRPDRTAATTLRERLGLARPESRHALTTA
Assay: co-purification through ammonium sulphate, MonoQ, Phenyl Superose, Bio-Sil SEC 250 gel permeation (activity peak at 77,000) and MonoQ, then SDS-PAGE

binding: binds
B1: SnaA, large subunit of pristinamycin IIA synthase of Streptomyces pristinaespiralis SP92 (enzyme)
chain: TAPRRRITLAGIIDGPGGHVAAWRHPATKADAQLDFEFHRDNARTLERGLFDAVFIADIVAVWGTRLDSLCRTSRTEHFEPLTLLAAYAAVTEHIGLCATATTTYNEPAHIAARFASLDHLSGGRAGWNVVTSAAPWESANFGFPEHLEHGKRYERAEEFIDVVKKLWDSDGRPVDHRGTHFEAPGPLGIARPPQGRPVIIQAGSSPVGREFAARHAEVIFTRHNRLSDAQDFYGDLKARVARHGRDPEKVLVWPTLAPIVAATDTEAKQRLQELQDLTHDHVALRTLQDHLGDVDLSAYPIDGPVPDIPYTNQSQSTTERLIGLARRENLSIRELALRLMGDIVVGTPEQLADHMESWFTGRGADGFNIDFPYLPGSADDFVDHVVPELQRRGLYRSGYEGTTLRANLGIDAPRKAGAAA
